From publication PMC4216105
Results are given in words; binding and its absence hold for the method and conditions named. Binding seen in cells or lysates may run through a third protein. Some binding calls cover weakened binding; strength is not graded here. Tags and fused reporters may be left off the sequences shown.

B1: SP-Flag-Testican-2 (protein, UniProt Q92563 23-424)
chain: EGDAKGLKEGETPGNFMEDEQWLSSISQYSGKIKHWNRFRDEVEDDYIKSWEDNQQGDEALDTTKDPCQKVKCSRHKVCIAQGYQRAMCISRKKLEHRIKQPTVKLHGNKDSICKPCHMAQLASVCGSDGHTYSSVCKLEQQACLSSKQLAVRCEGPCPCPTEQAATSTADGKPETCTGQDLADLGDRLRDWFQLLHENSKQNGSASSVAGPASGLDKSLGASCKDSIGWMFSKLDTSADLFLDQTELAAINLDKYEVCIRPFFNSCDTYKDGRVSTAEWCFCFWREKPPCLAELERIQIQEAAKKKPGIFIPSCDEDGYYRKMQCDQSSGDCWCVDQLGLELTGTRTHGSPDCDDIVGFSGDFGSGVGWEDEEEKETEEAGEEAEEEEGEAGEADDGGYIW
B2: Wnt5a-HA (protein, UniProt P41221 62-380)
chain: IIGAQPLCSQLAGLSQGQKKLCHLYQDHMQYIGEGAKTGIKECQYQFRHRRWNCSTVDNTSVFGRVMQIGSRETAFTYAVSAAGVVNAMSRACREGELSTCGCSRAARPKDLPRDWLWGGCGDNIDYGYRFAKEFVDARERERIHAKGSYESARILMNLHNNEAGRRTVYNLADVACKCHGVSGSCSLKTCWLQLADFRKVGDALKEKYDSAAAMRLNSRGKLVQVNSRFNSPTTQDLVYIDPSPDYCVRNESTGSLGTQGRLCNKTSEGMDGCELMCCGRGYDQFKTVQTERCHCKFHWCCYVKCKKCTEIVDQFVCK

How the values were obtained:
[1] = biological target: T1, Wnt5a-HA (UniProt P41221); experiment: co-IP; extracellular binding assay: culture supernatants of separately transfected S2 cells collected after 48 h, 500 ug of protein from each mixed in different combinations, immunoprecipitated with anti-HA or anti-Flag
T1 sequence: B2 chain

[2] = biological target: T2, SP-Flag-Testican-2 (human) (UniProt Q92563); experiment: as above
T2 sequence: B1 chain

| Binder | binding [1] | binding [2] |
| --- | --- | --- |
| B1 | binds | – |
| B2 | – | binds |
